# Patent publication US20110086042A1
# Amino acid sequences for entries named in this document (tags omitted).
# UniProt P23258: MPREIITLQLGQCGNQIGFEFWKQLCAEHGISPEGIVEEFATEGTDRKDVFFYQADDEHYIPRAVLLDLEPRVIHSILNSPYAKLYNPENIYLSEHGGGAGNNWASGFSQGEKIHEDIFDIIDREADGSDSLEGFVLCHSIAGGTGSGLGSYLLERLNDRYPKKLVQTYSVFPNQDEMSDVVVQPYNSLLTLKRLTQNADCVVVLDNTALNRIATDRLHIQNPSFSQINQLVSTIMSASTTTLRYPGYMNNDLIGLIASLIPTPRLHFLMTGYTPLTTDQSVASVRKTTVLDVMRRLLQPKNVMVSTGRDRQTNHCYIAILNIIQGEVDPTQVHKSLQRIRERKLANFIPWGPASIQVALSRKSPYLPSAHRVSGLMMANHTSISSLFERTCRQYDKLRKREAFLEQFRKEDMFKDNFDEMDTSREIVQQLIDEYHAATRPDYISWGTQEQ
# No constants are given. Whether binding was seen depends on the method and setting. Some results given as binding are weak or reduced against the parent protein; the word gives no strength.
# T1: BRCA2 C-terminal 1026 residues (yeast two-hybrid bait from pGBKT7-BRCA2-C3) (UniProt P51587)
# T1 sequence (looked up): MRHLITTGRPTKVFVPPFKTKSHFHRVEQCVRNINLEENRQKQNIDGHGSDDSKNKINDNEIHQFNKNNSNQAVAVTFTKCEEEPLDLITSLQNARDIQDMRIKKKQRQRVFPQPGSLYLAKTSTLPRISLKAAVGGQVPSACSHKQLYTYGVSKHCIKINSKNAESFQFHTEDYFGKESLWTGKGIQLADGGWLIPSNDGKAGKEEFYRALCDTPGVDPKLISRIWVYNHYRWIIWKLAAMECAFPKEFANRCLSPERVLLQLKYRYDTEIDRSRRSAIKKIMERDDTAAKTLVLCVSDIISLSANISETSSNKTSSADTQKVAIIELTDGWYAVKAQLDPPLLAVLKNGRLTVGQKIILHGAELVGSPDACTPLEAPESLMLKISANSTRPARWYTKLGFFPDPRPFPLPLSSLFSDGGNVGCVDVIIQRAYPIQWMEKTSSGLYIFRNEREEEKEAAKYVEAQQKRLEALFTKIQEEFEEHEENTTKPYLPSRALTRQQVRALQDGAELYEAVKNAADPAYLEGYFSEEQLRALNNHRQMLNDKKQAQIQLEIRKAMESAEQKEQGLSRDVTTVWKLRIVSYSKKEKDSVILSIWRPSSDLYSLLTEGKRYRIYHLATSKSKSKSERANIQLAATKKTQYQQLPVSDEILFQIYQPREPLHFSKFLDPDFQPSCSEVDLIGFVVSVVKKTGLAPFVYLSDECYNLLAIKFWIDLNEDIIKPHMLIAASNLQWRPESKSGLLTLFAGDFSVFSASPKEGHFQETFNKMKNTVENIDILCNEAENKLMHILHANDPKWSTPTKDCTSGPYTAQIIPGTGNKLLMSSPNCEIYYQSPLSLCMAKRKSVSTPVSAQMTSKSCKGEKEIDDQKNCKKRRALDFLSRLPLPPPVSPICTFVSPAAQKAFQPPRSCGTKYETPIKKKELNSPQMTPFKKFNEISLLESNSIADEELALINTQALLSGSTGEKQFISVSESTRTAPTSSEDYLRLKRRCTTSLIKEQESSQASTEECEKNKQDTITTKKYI
# Key:
# [1] = target: T1, BRCA2 C-terminal 1026 residues (yeast two-hybrid bait from pGBKT7-BRCA2-C3); experiment: yeast two-hybrid screen
# γ-tubulin = γ-tubulin (UniProt P23258); experiment: co-localisation in rod-like structures of cells that overexpress full-length centrobin
binding [1],binding (γ-tubulin),Binder
binds,,"centrobin-C (C-terminal 539 amino acids of centrobin, yeast two-hybrid clones) (protein) QEHQLKEHYQALQEESQAQLEREKEKSQREAQAAWETQHQLALVQSEVRRLEGELDTARRERDALQLEMSLVQARYESQRIQLESELAVQLEQRVTERLAQAQESSLRQAASLREHHRKQLQDLSGQHQQELASQLAQFKVEMAEREERQQQVAEDYELRLAREQARVCELQSGNQQLEEQRVELVERLQAMLQAHWDEANQLLSTTLPPPNPPAPPAGPSSPGPQEPEKEERRVWTMPPMAVALKPVLQQSREARDELPGAPPVLCSSSSDLSLLLGPSFQSQHSFQPLEPKPDLTSSTAGAFSALGAFHPDHRAERPFPEEDPGPDGEGLLKQGLPPAQLEGLKNFLHQLLETVPQNNENPSVDLLPPKSGPLTVPSWEEAPQVPRIPPPVHKTKVPLAMASSLFRVPEPPSSHSQGSGPSSGSPERGGDGLTFPRQLMEVSQLLRLYQARGWGALPAEDLLLYLKRLEHSGTDGRGDNVPRRNTDSRLGEIPRKEIPSQAVPRRLATAPKTEKPPARKKSGHPAPSSMRSRGGVWR"
,binds,"centrobin α (full-length, 903 amino acids) (protein) MATSADSPSSPLGAEDLLSDSSEPPGLNQVSSEVTSQLYASLRLSRQAEATARAQLYLPSTSPPHEGLDGFAQELSRSLSVGLEKNLKKKDGSKHIFEMESVRGQLQTMLQTSRDTAYRDPLIPGAGSERREEDSFDSDSTATLLNTRPLQDLSPSSSAQALEELFPRYTSLRPGPPLNPPDFQGLRDALDSEHTRRKHCERHIQSLQTRVLELQQQLAVAVAADRKKDTMIEQLDKTLARVVEGWNRHEAERTEVLRGLQEEHQAAELTRSKQQETVTRLEQSLSEAMEALNREQESARLQQRERETLEEERQALTLRLEAEQQRCCVLQEERDAARAGQLSEHRELETLRAALEEERQTWAQQEHQLKEHYQALQEESQAQLEREKEKSQREAQAAWETQHQLALVQSEVRRLEGELDTARRERDALQLEMSLVQARYESQRIQLESELAVQLEQRVTERLAQAQESSLRQAASLREHHRKQLQDLSGQHQQELASQLAQFKVEMAEREERQQQVAEDYELRLAREQARVCELQSGNQQLEEQRVELVERLQAMLQAHWDEANQLLSTTLPPPNPPAPPAGPSSPGPQEPEKEERRVWTMPPMAVALKPVLQQSREARDELPGAPPVLCSSSSDLSLLLGPSFQSQHSFQPLEPKPDLTSSTAGAFSALGAFHPDHRAERPFPEEDPGPDGEGLLKQGLPPAQLEGLKNFLHQLLETVPQNNENPSVDLLPPKSGPLTVPSWEEAPQVPRIPPPVHKTKVPLAMASSLFRVPEPPSSHSQGSGPSSGSPERGGDGLTFPRQLMEVSQLLRLYQARGWGALPAEDLLLYLKRLEHSGTDGRGDNVPRRNTDSRLGEIPRKEIPSQAVPRRLATAPKTEKPPARKKSGHPAPSSMRSRGGVWR"
